# Assay results from patent US8946478B2, “Benzamide derivative with anticancer activity and preparation method and use thereof” (Zhejiang Hisun Pharmaceutical Co., Ltd., priority 2010, dated 2015).
# At least one compound was matched to its structure with a doubt left.
# Test system: 18 tumor cell strains
# Assay: In vitro efficacy screening, summary over the tumor cell strains
# Type: cell-based, human
# Experimental: Human colon cancer cell strains (Colo205 and HCT-116), human breast cancer cell strains (MCF-7 and MDA-MB435), human lung cancer cell strains (A549, 95D and NCI460), human ovarian cancer cell strains (OVCAR-5, OVCAR-8, HO8910 and SKOV-3), human leukemia (HL-60 and K562), human prostate cancer (DU145 and BXPC-3), human uterine cancer (Hela), human pancreatic cancer (PANC-1), human hepatoma (HepG 2) were all obtained from ATCC. Colo205, HL-60, K562 cells were cultured in RPMI 1640 containing 2 mM/L glutamine, 10% FBS, 1.0 mM sodium pyruvate. HCT-116, MCF-7, A549, 95D, HO8910, NCI460, OVCAR-5, OVCAR-8, DU145, BXPC-3, Hela, PANC-1, HepG2 cells were cultured in DMEM containing 2 mM/L glutamine, 10% FBS. MDA-MB435 cells were cultured in L-15 containing 2 mM/L glutamine, 10% FBS. SKOV-3 cells were cultured in McCoy's containing 2 mM/L glutamine, 10% FBS. […]
# 50 μL pre-cooled 50% (mass/volume) TCA was added onto the surface of the culture medium to fix the cells, which was then placed at 4° C. for 1 h. […] After dried in the air until the moisture was invisible, each well was added 200 μL Tris base to dissolve, shaken on a plate oscillator for 5 min or mixed by beating up and down with a pipette tip, and then measured on the multi-function instruction (M5 Detection System, MD Group Ltd.) with a detection wavelength of 515 nm, zero adjusted with 690 nm blank control. […]
compound,measurement,setting,value
C#Cc1ccc(C(=O)N2CCC2)cc1[N+](=O)[O-] [Compound I-25],"efficacy in inhibition of tumor cell proliferation, graded in words against I-1",,good effects on inhibition of tumor cell proliferation
same,inhibitory effects on tumor cell proliferation (in words),BSI-201 as positive drug,have inhibitory effects on tumor cell proliferation
